log2 fold change data for 18 targets are collected here from the supplement of paper PMC10849652.

Chains of the proteins cited; added tags and fusions are not shown. Lines headed by an entry give the natural chain unless they say otherwise; changes in a name come on top.
UniProt O15066: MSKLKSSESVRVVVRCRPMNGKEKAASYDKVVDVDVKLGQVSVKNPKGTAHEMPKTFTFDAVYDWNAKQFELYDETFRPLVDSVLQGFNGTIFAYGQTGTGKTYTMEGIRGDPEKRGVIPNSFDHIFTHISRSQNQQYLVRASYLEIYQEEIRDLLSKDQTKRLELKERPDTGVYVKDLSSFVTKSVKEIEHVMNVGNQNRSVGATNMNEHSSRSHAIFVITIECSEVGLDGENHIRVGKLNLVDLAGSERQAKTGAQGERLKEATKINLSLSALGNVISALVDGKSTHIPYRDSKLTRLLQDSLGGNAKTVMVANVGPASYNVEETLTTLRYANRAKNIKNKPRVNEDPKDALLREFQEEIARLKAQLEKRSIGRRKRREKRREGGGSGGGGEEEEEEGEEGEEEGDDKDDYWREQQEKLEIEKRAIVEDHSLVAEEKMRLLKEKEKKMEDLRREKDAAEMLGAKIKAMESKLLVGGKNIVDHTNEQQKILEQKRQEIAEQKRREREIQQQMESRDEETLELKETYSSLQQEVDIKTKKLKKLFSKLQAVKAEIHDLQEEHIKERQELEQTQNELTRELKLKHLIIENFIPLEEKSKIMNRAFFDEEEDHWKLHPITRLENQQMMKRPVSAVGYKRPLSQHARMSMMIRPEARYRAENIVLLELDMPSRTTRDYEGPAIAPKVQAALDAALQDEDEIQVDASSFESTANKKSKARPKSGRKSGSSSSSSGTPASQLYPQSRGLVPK
UniProt Q8IXQ5, whole entry, looked up: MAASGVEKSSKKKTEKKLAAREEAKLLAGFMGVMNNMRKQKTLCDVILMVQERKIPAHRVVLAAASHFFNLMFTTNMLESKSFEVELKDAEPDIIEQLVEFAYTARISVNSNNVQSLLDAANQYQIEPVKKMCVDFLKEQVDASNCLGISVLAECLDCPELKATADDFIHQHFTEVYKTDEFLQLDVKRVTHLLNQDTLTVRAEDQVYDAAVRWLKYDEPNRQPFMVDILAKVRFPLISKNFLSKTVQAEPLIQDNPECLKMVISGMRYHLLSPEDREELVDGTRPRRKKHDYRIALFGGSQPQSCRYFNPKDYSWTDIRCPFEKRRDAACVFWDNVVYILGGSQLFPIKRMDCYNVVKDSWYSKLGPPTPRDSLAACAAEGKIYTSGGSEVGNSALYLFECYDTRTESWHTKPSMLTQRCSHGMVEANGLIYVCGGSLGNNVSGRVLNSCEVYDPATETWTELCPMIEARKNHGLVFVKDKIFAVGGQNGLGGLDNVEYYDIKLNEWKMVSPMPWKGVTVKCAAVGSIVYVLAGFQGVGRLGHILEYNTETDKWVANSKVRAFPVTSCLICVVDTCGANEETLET
UniProt P57682: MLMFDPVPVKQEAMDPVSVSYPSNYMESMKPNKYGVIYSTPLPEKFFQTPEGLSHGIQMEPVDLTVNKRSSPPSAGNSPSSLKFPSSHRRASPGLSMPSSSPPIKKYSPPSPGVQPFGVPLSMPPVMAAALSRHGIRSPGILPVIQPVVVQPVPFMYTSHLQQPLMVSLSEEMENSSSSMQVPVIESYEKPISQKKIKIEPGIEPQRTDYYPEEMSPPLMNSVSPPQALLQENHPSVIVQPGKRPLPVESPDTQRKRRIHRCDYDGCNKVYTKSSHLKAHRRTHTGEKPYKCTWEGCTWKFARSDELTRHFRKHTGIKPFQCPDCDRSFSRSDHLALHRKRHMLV
UniProt O95235: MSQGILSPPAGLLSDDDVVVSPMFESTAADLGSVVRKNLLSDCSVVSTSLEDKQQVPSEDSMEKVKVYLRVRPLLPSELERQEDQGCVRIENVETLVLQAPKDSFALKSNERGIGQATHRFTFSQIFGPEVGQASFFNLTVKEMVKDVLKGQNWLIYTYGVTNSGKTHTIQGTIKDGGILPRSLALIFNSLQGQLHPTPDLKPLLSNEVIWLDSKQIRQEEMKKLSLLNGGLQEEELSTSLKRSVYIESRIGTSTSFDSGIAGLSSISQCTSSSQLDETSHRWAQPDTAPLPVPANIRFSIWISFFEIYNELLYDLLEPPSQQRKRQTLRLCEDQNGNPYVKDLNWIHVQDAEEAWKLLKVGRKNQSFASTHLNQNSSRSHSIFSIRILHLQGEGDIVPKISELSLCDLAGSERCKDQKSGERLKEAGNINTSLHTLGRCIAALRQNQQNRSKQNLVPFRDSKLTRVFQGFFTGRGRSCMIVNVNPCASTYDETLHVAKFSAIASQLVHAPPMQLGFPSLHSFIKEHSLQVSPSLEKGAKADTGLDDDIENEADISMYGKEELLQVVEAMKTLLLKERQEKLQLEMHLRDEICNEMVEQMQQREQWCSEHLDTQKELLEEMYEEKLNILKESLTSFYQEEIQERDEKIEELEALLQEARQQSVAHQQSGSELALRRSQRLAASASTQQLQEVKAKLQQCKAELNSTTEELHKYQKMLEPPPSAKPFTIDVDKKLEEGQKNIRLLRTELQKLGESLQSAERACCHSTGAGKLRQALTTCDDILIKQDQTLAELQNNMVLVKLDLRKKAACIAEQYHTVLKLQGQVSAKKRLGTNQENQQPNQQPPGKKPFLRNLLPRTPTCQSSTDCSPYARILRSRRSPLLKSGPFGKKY
UniProt Q6P597: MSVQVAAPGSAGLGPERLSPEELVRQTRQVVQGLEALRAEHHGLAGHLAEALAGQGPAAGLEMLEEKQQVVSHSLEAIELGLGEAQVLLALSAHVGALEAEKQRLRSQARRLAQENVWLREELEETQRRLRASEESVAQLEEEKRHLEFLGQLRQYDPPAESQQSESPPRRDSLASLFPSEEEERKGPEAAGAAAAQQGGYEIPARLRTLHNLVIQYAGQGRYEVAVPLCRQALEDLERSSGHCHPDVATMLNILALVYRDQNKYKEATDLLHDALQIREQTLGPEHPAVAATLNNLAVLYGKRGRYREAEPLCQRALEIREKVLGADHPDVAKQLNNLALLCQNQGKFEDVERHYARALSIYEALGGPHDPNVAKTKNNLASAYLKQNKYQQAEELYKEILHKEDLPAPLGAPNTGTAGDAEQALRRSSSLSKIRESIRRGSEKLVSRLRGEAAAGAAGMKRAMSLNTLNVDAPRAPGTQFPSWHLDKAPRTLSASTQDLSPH
UniProt P24043: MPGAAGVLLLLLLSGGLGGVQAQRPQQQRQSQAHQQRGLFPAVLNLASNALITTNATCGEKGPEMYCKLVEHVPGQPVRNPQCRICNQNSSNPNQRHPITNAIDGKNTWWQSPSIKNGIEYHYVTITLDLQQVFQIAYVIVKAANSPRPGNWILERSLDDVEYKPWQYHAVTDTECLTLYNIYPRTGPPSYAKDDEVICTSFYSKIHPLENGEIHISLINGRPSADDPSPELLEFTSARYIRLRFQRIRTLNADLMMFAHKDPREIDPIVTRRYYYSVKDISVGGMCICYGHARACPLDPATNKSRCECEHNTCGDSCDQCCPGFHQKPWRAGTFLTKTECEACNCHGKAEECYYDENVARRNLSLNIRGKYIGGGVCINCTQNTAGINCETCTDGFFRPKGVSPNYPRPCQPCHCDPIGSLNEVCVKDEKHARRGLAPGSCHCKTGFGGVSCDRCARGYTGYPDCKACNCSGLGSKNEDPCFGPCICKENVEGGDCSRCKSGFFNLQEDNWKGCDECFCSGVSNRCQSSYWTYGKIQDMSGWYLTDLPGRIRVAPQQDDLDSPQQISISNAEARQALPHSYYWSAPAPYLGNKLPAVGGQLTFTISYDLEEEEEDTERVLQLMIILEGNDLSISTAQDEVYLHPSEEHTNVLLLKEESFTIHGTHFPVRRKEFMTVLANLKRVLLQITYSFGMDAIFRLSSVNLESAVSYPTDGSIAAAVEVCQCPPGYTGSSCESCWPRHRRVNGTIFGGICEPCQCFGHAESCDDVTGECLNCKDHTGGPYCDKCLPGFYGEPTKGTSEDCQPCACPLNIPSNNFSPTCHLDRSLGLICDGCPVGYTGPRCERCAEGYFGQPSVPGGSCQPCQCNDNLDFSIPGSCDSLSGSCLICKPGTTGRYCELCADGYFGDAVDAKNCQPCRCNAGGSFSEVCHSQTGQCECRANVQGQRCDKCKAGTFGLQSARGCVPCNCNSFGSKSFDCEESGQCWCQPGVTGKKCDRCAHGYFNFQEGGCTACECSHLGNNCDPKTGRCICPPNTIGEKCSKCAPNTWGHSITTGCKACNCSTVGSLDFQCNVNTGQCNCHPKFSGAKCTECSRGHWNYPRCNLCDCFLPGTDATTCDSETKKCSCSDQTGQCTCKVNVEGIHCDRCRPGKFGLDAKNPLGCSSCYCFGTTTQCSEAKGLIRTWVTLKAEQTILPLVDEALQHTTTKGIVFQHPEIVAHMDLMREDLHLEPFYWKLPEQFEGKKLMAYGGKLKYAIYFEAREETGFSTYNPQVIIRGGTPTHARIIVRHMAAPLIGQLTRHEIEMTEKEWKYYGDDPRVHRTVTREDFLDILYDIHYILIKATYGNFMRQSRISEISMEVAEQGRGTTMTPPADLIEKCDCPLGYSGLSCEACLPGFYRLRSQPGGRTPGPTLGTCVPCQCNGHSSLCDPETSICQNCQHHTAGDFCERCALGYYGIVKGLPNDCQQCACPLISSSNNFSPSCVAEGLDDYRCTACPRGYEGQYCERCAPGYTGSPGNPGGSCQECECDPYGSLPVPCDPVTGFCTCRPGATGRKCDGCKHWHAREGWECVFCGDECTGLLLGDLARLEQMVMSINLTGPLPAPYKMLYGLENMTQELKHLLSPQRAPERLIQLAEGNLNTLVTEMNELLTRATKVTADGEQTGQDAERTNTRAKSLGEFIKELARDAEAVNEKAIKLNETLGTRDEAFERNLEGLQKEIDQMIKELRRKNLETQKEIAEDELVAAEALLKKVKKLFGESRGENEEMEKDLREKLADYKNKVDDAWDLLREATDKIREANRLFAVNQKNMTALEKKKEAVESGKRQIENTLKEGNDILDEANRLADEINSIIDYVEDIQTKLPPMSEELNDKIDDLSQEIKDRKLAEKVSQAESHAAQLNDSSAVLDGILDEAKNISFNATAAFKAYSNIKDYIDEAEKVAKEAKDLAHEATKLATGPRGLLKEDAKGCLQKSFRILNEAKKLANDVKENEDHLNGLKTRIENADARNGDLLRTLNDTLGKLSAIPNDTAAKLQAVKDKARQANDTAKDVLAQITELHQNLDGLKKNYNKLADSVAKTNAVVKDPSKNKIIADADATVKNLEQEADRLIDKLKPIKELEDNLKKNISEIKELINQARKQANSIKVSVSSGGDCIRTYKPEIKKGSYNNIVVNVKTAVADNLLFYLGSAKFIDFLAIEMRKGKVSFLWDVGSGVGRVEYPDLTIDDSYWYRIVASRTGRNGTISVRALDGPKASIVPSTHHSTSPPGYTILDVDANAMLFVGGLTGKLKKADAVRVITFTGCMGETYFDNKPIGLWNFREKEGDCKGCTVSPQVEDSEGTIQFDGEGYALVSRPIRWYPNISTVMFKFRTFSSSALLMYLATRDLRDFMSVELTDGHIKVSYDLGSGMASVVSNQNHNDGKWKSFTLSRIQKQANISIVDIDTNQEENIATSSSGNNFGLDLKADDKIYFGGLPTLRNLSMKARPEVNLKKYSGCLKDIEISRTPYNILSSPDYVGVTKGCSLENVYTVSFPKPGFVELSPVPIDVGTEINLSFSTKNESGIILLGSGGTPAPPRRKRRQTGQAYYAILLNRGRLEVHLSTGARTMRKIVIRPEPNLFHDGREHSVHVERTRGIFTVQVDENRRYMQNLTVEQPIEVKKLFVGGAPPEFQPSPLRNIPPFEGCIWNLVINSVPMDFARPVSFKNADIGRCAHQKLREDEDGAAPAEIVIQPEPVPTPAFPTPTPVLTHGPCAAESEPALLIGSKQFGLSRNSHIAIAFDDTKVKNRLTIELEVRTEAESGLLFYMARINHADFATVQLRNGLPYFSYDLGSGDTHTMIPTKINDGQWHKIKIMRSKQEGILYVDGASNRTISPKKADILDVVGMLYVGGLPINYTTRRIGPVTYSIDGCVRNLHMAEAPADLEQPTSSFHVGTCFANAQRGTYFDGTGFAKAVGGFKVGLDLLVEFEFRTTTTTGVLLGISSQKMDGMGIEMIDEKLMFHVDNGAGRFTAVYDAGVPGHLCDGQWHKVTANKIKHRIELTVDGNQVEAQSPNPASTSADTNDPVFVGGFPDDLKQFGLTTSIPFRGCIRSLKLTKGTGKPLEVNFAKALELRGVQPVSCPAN
UniProt Q9Y2Y9: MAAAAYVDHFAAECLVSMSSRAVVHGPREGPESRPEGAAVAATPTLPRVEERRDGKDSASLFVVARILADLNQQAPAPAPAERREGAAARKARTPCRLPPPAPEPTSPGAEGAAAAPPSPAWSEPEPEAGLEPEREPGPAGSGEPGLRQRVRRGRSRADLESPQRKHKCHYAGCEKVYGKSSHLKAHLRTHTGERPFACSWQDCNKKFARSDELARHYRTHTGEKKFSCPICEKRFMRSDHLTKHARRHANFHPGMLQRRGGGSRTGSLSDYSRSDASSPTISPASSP

Test in all cases: log2 fold change, soluble protein after heating vs DMSO (PISA); higher = thermal stabilisation; K562 lysate, 10 uM; active = over 0.2 and 3.5 SD of the protein, either way, in both replicates (recomputed)
Compound in one assay: Cc1cn(-c2cc(NC(=O)c3ccc(C)c(Nc4nccc(-c5cccnc5)n4)c3)cc(C(F)(F)F)c2)cn1 [nilotinib]
Summed up: (§1)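 Thermal stability, expressed as log-two fold change relative to solvent controls, is given from duplicates. Crude K562 extract in PBS pH 7.4 with 1 mM MgCl2, at 1 mg/mL protein, was treated with 10 μM compound for 30 min and heated in aliquots for 3 min across 48°C-58°C. After pooling, adjustment to 0.5% NP-40 at 4°C and centrifugation at 21,000xg for 90 min, supernatant protein was measured by TMTpro 16plex LC-MS/MS with channel sums equalised.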

Compound in assay [1]: Cc1nc(Nc2n[nH]c3c2CN(C(=O)N[C@H](CN(C)C)c2ccccc2)C3(C)C)c2sccc2n1
Summed up:
as §1

Compound in a further assay: Cc1nc(Nc2ncc(C(=O)Nc3c(C)cccc3Cl)s2)cc(N2CCN(CCO)CC2)n1 [dasatinib]
Summed up: as §1

Compound in assay [2]: Cc1ncc(-c2ccnc(Nc3ccc(S(C)(=O)=O)cc3)n2)n1C(C)C
Summed up:
as §1

Compound in assay [3]: Cn1cc(-c2ccc3c(c2)CCN3C(=O)Cc2cccc(C(F)(F)F)c2)c2c(N)ncnc21
Summed up: as §1

Compound in a further assay: Cn1cc(CNCC2CCN(c3ncc(C(=O)NO)cn3)CC2)c2ccccc21 [quisinostat]
The procedure, abridged: as §1

Compound in another assay: Cn1cncc1[C@@](N)(c1ccc(Cl)cc1)c1ccc2c(c1)c(-c1cccc(Cl)c1)cc(=O)n2C [tipifarnib]
The procedure, abridged: as §1

Compound in assay [4]: NC(=O)Nc1cc(-c2cccc(F)c2)sc1C(=O)N[C@H]1CCCNC1
The procedure, abridged:
as §1

Compound in assay [5]: NC(=O)c1cnc(N[C@@H]2CCCC[C@@H]2N)nc1Nc1cccc(-n2nccn2)c1
The procedure, abridged: as §1

Compound in assay [6]: NCC(=O)Nc1ccc(-n2nc(C(F)(F)F)cc2-c2ccc3c(ccc4ccccc43)c2)cc1
Summed up:
as §1

Compound in assay [7]: O=C1NC(=O)C(c2cnc3ccccn23)=C1c1cn2c3c(cc(F)cc13)CN(C(=O)N1CCCCC1)CC2
The procedure, abridged:
as §1

Compound in a further assay: c1cn2cc(-c3ccc4cn[nH]c4c3)nc(Nc3ccc(N4CCOCC4)cc3)c2n1 [entospletinib]
The procedure, abridged:
as §1

Compound in assay [8]: NC1(c2ccc(-c3nc4ccn5c(=O)[nH]nc5c4cc3-c3ccccc3)cc2)CCC1
The procedure, abridged: as §1

Compound in another assay: O=C(CCCCCCC(=O)Nc1ccccc1)NO [vorinostat]
Summed up:
as §1

Compound in another assay: O=C(O)c1ccc2c(c1)nc(Nc1cccc(Cl)c1)c1ccncc12 [silmitasertib]
Summed up:
as §1

Some of the results follow.

For KIAA0930 isoform 2 (UniProt Q6ICG6), the log2 fold change was inactive: -0.041 with nilotinib; inactive: 0.05 in assay [1]; inactive: 0.202 in the assay with dasatinib; inactive: -0.109 in assay [2]; inactive: -0.021 in [3]; inactive: 0.03 with quisinostat. Moreover, the log2 fold change was inactive: -0.037 in the assay with tipifarnib; inactive: -0.026 in [4]; inactive: -0.047 in assay [5]; inactive: 0.046 in [6]; inactive: -0.057 in assay [7]; inactive: 0.062 with entospletinib.

Consider KIF3B (UniProt O15066), for which the log2 fold change with nilotinib is inactive: -0.051; in [1], inactive: 0.002; in [2], inactive: 0.012; with quisinostat, inactive: -0.022; with tipifarnib, inactive: 0.014; in assay [4], inactive: 0.024. Besides, the log2 fold change in assay [5] was inactive: 0.043; in [8] it was inactive: -0.013; in assay [6], inactive: 0.074; in the assay with vorinostat it was inactive: 0.005; with silmitasertib, inactive: -0.005; in [7] it was inactive: 0.025. Besides, in the assay with entospletinib, the log2 fold change was inactive: -0.119.

On to KLHL7 isoform 3 (UniProt Q8IXQ5), for which the log2 fold change with nilotinib was inactive: -0.086; in [1], inactive: -0.031; in [2], inactive: 0.039; with quisinostat it was inactive: -0.016; with tipifarnib, inactive: -0.059; in [4], inactive: -0.018. Also, the log2 fold change in assay [5] is inactive: -0.002; in [6] it was inactive: 0.112; in assay [7], inactive: 0.002; with entospletinib it was inactive: -0.087.

As to KLF3 (UniProt P57682), the log2 fold change was inactive: 0.019 with nilotinib; inactive: -0.074 in [1]; inactive: -0.14 in assay [2]; inactive: -0.021 in the assay with quisinostat; inactive: -0.016 with tipifarnib; inactive: -0.064 in assay [4]. Also, the log2 fold change in [7] is inactive: -0.07; in the assay with entospletinib, inactive: -0.186.

In the case of KLHL11 (UniProt Q9NVR0), the log2 fold change with nilotinib is inactive: 0.037; in assay [1], inactive: -0.019; with dasatinib it was inactive: -0.123; in assay [2] it was inactive: -0.031; in assay [3], inactive: 0.085; with quisinostat, inactive: -0.046. For the same target, the log2 fold change with tipifarnib was inactive: 0.012; in assay [4], inactive: 0.063; in assay [8], inactive: -0.077; in assay [6], inactive: -0.003; in the assay with vorinostat, inactive: -0.132; in the assay with silmitasertib it was inactive: 0.009. Also, the log2 fold change in [7] was inactive: 0.022; with entospletinib, inactive: -0.052.

For KIFAP3 (UniProt Q92845), the log2 fold change was inactive: -0.008 with nilotinib; inactive: 0.065 in assay [1]; inactive: -0.055 in the assay with dasatinib; inactive: -0.218 in assay [2]; inactive: 0.008 in assay [3]; inactive: -0.041 with quisinostat. Further, the log2 fold change is inactive: -0.102 with tipifarnib, inactive: 0.071 in [4], inactive: 0 in [7] and inactive: -0.082 with entospletinib.

For KIF20A (UniProt O95235), the log2 fold change with nilotinib is inactive: 0.028; in [1], inactive: -0.076; in the assay with dasatinib it was inactive: -0.063; in [2], inactive: -0.029; in [3], inactive: -0.006; with quisinostat, inactive: -0.21. Besides, the log2 fold change in the assay with tipifarnib is inactive: 0.004; in assay [4], inactive: -0.012; in assay [6], inactive: -0.033; in [7], inactive: 0.091; with entospletinib it was inactive: -0.142.

As to KLC3 isoform 3 (UniProt Q6P597), the log2 fold change with nilotinib is inactive: -0.193; in assay [1], inactive: 0.006; in assay [2] it was inactive: -0.036; in the assay with quisinostat, inactive: -0.075; with tipifarnib it was inactive: 0.034; in assay [4], inactive: 0.061. Also, the values for the log2 fold change (in assay [5]; in [7]; with entospletinib) were inactive: 0, inactive: 0.069 and inactive: -0.132, respectively.

Take KRI1 (UniProt Q8N9T8): the log2 fold change is inactive: -0.099 in the assay with nilotinib; inactive: 0.02 in assay [1]; inactive: -0.025 with dasatinib; inactive: 0 in assay [2]; inactive: -0.014 in [3]; inactive: -0.125 in the assay with quisinostat. The log2 fold change with tipifarnib is inactive: -0.073; in assay [4], inactive: -0.006; in assay [8], inactive: 0.06; in assay [6] it was inactive: 0.085; with vorinostat, active: -0.285; with silmitasertib it was inactive: -0.023. Besides, the results for the log2 fold change (in assay [7]; with entospletinib) were inactive: -0.007 and inactive: -0.07, respectively.

For the target LAMA2 (UniProt P24043), the log2 fold change in the assay with nilotinib was inactive: 0.009; in assay [1], inactive: 0.017; in assay [2] it was inactive: -0.002; with tipifarnib, inactive: -0.109; in [5] it was inactive: 0.082; in [8] it was inactive: -0.073. The log2 fold change in [6] was inactive: 0.12; in the assay with vorinostat it was inactive: 0.145; with silmitasertib, inactive: -0.018; in the assay with entospletinib, inactive: -0.011.

For the target KMT2B (UniProt Q9UMN6), the log2 fold change with dasatinib was inactive: 0.013; in [3] it was inactive: 0.108; with quisinostat, inactive: 0.346; in assay [4], inactive: -0.047; in assay [8], inactive: 0.122; in the assay with vorinostat it was inactive: 0.531. Besides, the figures for the log2 fold change (in the assay with silmitasertib; in [7]; in the assay with entospletinib) were active: -0.76, inactive: 0.211 and inactive: 0.116, respectively.

Take KMT2D (UniProt O14686): the log2 fold change is inactive: -0.201 with dasatinib and inactive: -0.045 in assay [3].

As to KRT13 (UniProt K7EMD9), the log2 fold change was inactive: -0.3 in assay [8], inactive: 0.227 with vorinostat and inactive: -0.362 in the assay with silmitasertib.

LAPTM4A (UniProt Q15012): the log2 fold change with dasatinib was inactive: -0.169; in assay [3], inactive: 0.287; in assay [6], inactive: 0.073.

On to KLF13 (UniProt Q9Y2Y9), for which the figures for the log2 fold change (in the assay with quisinostat; in assay [4]; in assay [7]) were inactive: -0.098, inactive: -0.002 and inactive: 0.083, respectively.

Consider LACRT (UniProt Q9GZZ8), for which the log2 fold change in assay [5] is inactive: 0.122; in assay [8], inactive: 0.005; with vorinostat, inactive: 0.303; with silmitasertib, inactive: -0.077.

As to KPNA5 (UniProt O15131), the log2 fold change was inactive: -0.162 in the assay with nilotinib; inactive: -0.098 in [1]; inactive: 0.15 in [2]; inactive: -0.028 in the assay with tipifarnib; inactive: 0.003 in [8]; inactive: -0.072 with vorinostat. For the same target, the log2 fold change with silmitasertib is inactive: 0.062.

With KIF18B (UniProt Q86Y91), the log2 fold change is inactive: 0.073 with dasatinib; inactive: 0.076 in assay [3]; inactive: -0.025 in the assay with quisinostat; inactive: 0.17 in assay [4]; inactive: 0.025 in assay [5]; inactive: -0.098 in assay [7]. In the assay with entospletinib, the log2 fold change was inactive: -0.035.
